{"source": "PubChem BioAssay AID250", "about": "(DTP/NCI, 2004)", "key": {"[1]": {"test_system": "BDF1 mice, L1210 leukemia sc", "test": "NCI In Vivo Anticancer Drug Screen. Data for tumor model L1210 Leukemia (subcutaneous) in B6D2F1 (BDF1) mice", "details": "T/C endpoint: median survival time, higher T/C = longer survival", "in_short": "(§1)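 Transplantable tumor-bearing mice; survival or tumor size recorded; result = T/C, treated vs vehicle control.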"}, "[2]": {"test_system": "BDF1 mice, L1210 leukemia sc, survival T/C", "test": "NCI In Vivo Anticancer Drug Screen. Data for tumor model L1210 Leukemia (subcutaneous) in B6D2F1 (BDF1) mice", "details": "T/C endpoint: median survival time, higher T/C = longer survival", "in_short": "as §1"}, "[3]": {"details": "dose: 108.0 mg/kg/injection, schedule: Q01DX Z (sc), vehicle: saline"}, "[4]": {"details": "dose: 180.0 mg/kg/injection, schedule: Q01DX Z (sc), vehicle: saline"}, "[5]": {"details": "dose: 108.0 mg/kg/injection, schedule: Q01DX Z (sc), vehicle: carboxymethylcellulose (CMC)"}}, "note": "The list shows only some results of the screen, not a fair sample: it gathers tests that were run many times, whatever their T/C, doses with no T/C, and many T/C values between a quarter and a half above the control. Other doses and runs of a compound stand elsewhere. T/C: endpoint of the treated group in % of that of the vehicle group. Some doses have a count of surviving animals in place of a T/C: the source files T/C as zero there, which appears to mark a toxic dose or a test without result, not a measured value. For some assays here: Survivors were counted at the toxicity check, usually on the fifth day, unless a day is given; later deaths do not show. Schedules are NCI's codes, read here as Q, the interval in days (D) or hours (H), X, the number of doses. Some schedule codes hold Z or #, which are not explained here. Where survival is the endpoint, the PubChem record calls one and a half times the control and up active, and a quarter to a half above the control has no call in these data; cut-offs in other NCI protocols can differ. Some T/C values carry the count of animals alive at the toxicity check (mostly the fifth day); where none is given, no animal had died by that day. Some doses were run more than once; their values stand side by side, smallest first. Additions like (4×) say how often a value occurs here. Numbered stars: 1 amine (or outer) side, 2 acyl side, 3 side chain; on linkers, the order of the positions; unused ones are H or OH. Bridge positions count the residues as written; N and C are the ends. Square brackets hold non-standard residues; d marks the D form. Peptide text beside a SMILES is read from it. I, II: the chains in the order shown. Actinocin(9to1) = Cc1c2oc3c(C)ccc(C(=O)[*:1])c3nc-2c(C(=O)[*:2])c(N)c1=O; aThr = C[C@H](O)[C@H](N)C(=O)O; NMeV = CN[C@H](C(=O)O)C(C)C; Sar = CNCC(=O)O"}
{"smiles": "O=c1[nH]c(=O)n(C2CC(O)C(CO)O2)cc1F", "note": "(stereo not drawn)", "values": [{"measurement": "T/C", "setting": "[1]; dose: 65.0 mg/kg/injection, schedule: Q01DX Z (sc), vehicle: saline", "result": "130 % of control"}, {"measurement": "T/C", "setting": "[1]; dose: 80.0 mg/kg/injection, schedule: Q01DX009 (sc), vehicle: water", "result": "129 % of control"}, {"measurement": "T/C", "setting": "[1]; [3]", "result": "127 % of control"}, {"measurement": "T/C", "setting": "[1]; dose: 128.0 mg/kg/injection, schedule: Q01DX Z (sc), vehicle: saline", "result": "144 % of control"}, {"measurement": "T/C", "setting": "[1]; dose: 160.0 mg/kg/injection, schedule: Q01DX009 (ip), vehicle: water", "result": "140 % of control"}, {"measurement": "T/C", "setting": "[1]; dose: 160.0 mg/kg/injection, schedule: Q01DX009 (sc), vehicle: water", "result": "125 % of control"}, {"measurement": "T/C", "setting": "[1]; [4]", "result": "145 % of control [9 of 10 alive]"}, {"measurement": "T/C", "setting": "[1]; dose: 300.0 mg/kg/injection, schedule: Q01DX Z (sc), vehicle: saline", "result": "140 (2×), 141 [7 of 10 alive], 144 % of control"}, {"measurement": "T/C", "setting": "[1]; dose: 500.0 mg/kg/injection, schedule: Q01DX Z (sc), vehicle: saline", "result": "130 and 135 % of control"}, {"measurement": "T/C", "setting": "[2]; [3]", "result": "120 [9 of 10 alive], 150, 155 % of control"}, {"measurement": "T/C", "setting": "[2]; [4]", "result": "150, 155, 160 % of control"}]}
{"smiles": "Cc1c2oc3c(C)ccc(C(=O)N[C@@H]4C(=O)N[C@H](C(C)C)C(=O)N5CCC[C@H]5C(=O)N(C)CC(=O)N(C)[C@@H](C(C)C)C(=O)O[C@H]4C)c3nc-2c(C(=O)N[C@@H]2C(=O)N[C@H](C(C)C)C(=O)N3CCC[C@H]3C(=O)N(C)CC(=O)N(C)[C@@H](C(C)C)C(=O)O[C@H]2C)c(N)c1=O", "note": "(I: [aThr][dV]P[Sar][NMeV] / II: [aThr][dV]P[Sar][NMeV]; ester I:1-I:C, II:1-II:C; linker I:N-II:N via Actinocin(9to1))", "values": [{"measurement": "T/C", "setting": "[1]; dose: 0.19 mg/kg/injection, schedule: Q01DX Z (sc), vehicle: saline", "result": "140 % of control [9 of 10 alive]"}, {"measurement": "T/C", "setting": "[1]; dose: 0.31 mg/kg/injection, schedule: Q01DX Z (sc), vehicle: saline", "result": "130 % of control [8 of 10 alive]"}, {"measurement": "survivor count", "setting": "[2]; dose: 0.04 mg/kg/injection, schedule: Q01DX Z (sc), vehicle: saline", "result": "3 of 10"}, {"measurement": "survivor count", "setting": "[2]; dose: 0.11 mg/kg/injection, schedule: Q01DX Z (sc), vehicle: saline", "result": "4 of 10"}]}
{"smiles": "N=[N+]=CC(=O)OCC(N)C(=O)O", "note": "(stereo not drawn)", "values": [{"measurement": "T/C", "setting": "[1]; dose: 23.0 mg/kg/injection, schedule: Q01DX Z (sc), vehicle: saline", "result": "125 % of control"}, {"measurement": "T/C", "setting": "[1]; dose: 32.0 mg/kg/injection, schedule: Q01DX Z (sc), vehicle: water", "result": "136 % of control"}, {"measurement": "T/C", "setting": "[1]; dose: 39.0 mg/kg/injection, schedule: Q01DX Z (sc), vehicle: saline", "result": "125 % of control"}, {"measurement": "T/C", "setting": "[1]; dose: 51.8 mg/kg/injection, schedule: Q01DX Z (sc), vehicle: water", "result": "135 % of control [9 of 10 alive]"}, {"measurement": "T/C", "setting": "[1]; dose: 64.0 mg/kg/injection, schedule: Q02DX Z (sc), vehicle: water", "result": "127 % of control"}, {"measurement": "survivor count", "setting": "[2]; dose: 2.4 mg/kg/injection, schedule: Q01DX Z (sc), vehicle: water", "result": "6 of 10"}, {"measurement": "survivor count", "setting": "[2]; dose: 18.7 mg/kg/injection, schedule: Q01DX Z (sc), vehicle: water", "result": "5 of 10"}]}
{"smiles": "C[C@H](N)C(=O)N[C@@H]1[C@H]2C(=C(O)C[C@@H](O)[C@@H]2O)C(=O)O[C@@H]1C", "values": [{"measurement": "T/C", "setting": "[1]; dose: 648.0 mg/kg/injection, schedule: Q01DX Z (sc), vehicle: saline", "result": "137 % of control [9 of 10 alive]"}, {"measurement": "T/C", "setting": "[1]; dose: 833.0 mg/kg/injection, schedule: Q01DX Z (sc), vehicle: saline", "result": "130 % of control"}, {"measurement": "T/C", "setting": "[1]; dose: 833.0 mg/kg/injection, schedule: Q#A X Z (sc), vehicle: saline", "result": "138 % of control"}, {"measurement": "T/C", "setting": "[1]; dose: 1388.0 mg/kg/injection, schedule: Q01DX Z (sc), vehicle: saline", "result": "130 % of control"}, {"measurement": "survivor count", "setting": "[2]; dose: 233.0 mg/kg/injection, schedule: Q01DX Z (sc), vehicle: saline", "result": "3 of 10"}, {"measurement": "survivor count", "setting": "[2]; dose: 1080.0 mg/kg/injection, schedule: Q01DX Z (sc), vehicle: saline", "result": "5 of 10"}]}
{"smiles": "CSc1ncnc2c1ncn2C1OC(CO)C(O)C1O", "note": "(stereo not drawn)", "values": [{"measurement": "T/C", "setting": "[1]; dose: 65.0 mg/kg/injection, schedule: Q01DX Z (sc), vehicle: water", "result": "144 % of control"}, {"measurement": "T/C", "setting": "[1]; dose: 108.0 mg/kg/injection, schedule: Q01DX Z (sc), vehicle: water", "result": "144 % of control"}, {"measurement": "survivor count", "setting": "[2]; dose: 500.0 mg/kg/injection, schedule: Q01DX001 (sc), vehicle: water", "result": "3 of 8"}]}
{"smiles": "CC(CNC(=O)CCOS(C)(=O)=O)NC(=O)CCOS(C)(=O)=O", "note": "(stereo not drawn)", "values": [{"measurement": "T/C", "setting": "[1]; [5]", "result": "135 % of control"}, {"measurement": "T/C", "setting": "[1]; dose: 300.0 mg/kg/injection, schedule: Q01DX Z (sc), vehicle: carboxymethylcellulose (CMC)", "result": "137 % of control [7 of 10 alive]"}, {"measurement": "T/C", "setting": "[1]; dose: 500.0 mg/kg/injection, schedule: Q01DX Z (sc), vehicle: carboxymethylcellulose (CMC), evaluated on day 31", "result": "137 % of control"}, {"measurement": "T/C", "setting": "[1]; dose: 500.0 mg/kg/injection, schedule: Q01DX Z (sc), vehicle: carboxymethylcellulose (CMC), run until all animals had died", "result": "125 % of control"}, {"measurement": "survivor count", "setting": "[2]; dose: 65.0 mg/kg/injection, schedule: Q01DX Z (sc), vehicle: carboxymethylcellulose (CMC)", "result": "3 of 10"}, {"measurement": "survivor count", "setting": "[2]; [5]", "result": "3 of 10"}, {"measurement": "survivor count", "setting": "[2]; dose: 180.0 mg/kg/injection, schedule: Q01DX Z (sc), vehicle: carboxymethylcellulose (CMC)", "result": "4 of 10"}]}
